# Test results as given in the supplement of paper PMC4604168 (melanoma cell lines).
# This is one part of the list. Many values rest on one well or one pass, so single values are uncertain.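 Cells were imaged in 1,536-well plates, and nuclei stained with an antibody against cleaved PARP were counted against all DNA-stained nuclei to give the apoptosis fraction. Screening doses were chosen to leave most cells alive, and resting and induced cleaved-PARP levels differ strongly between cell lines.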
# Experiments:
# Assay in all cases: cleaved PARP positive nuclei fraction relative to DMSO control; melanoma cells; higher = more apoptosis
# Conditions in all cases: library dose: low library concentration; 72 h
# MZ2-MEL = system: MZ2-MEL
# MeWo = system: MeWo
# RPMI7951 = system: RPMI7951
# RVH-421 = system: RVH-421
# SkMel28 = system: SkMel28
# SkMel2 = system: SkMel2
# SkMel30 = system: SkMel30
# SkMel5 = system: SkMel5
# UACC257 = system: UACC257
# UACC62 = system: UACC62
# WM115 = system: WM115
# WM1716 = system: WM1716
# WM1745 = system: WM1745
# WM3526 = system: WM3526
# WM3619 = system: WM3619
# WM451Lu = system: WM451Lu
SMILES,cleaved PARP positive nuclei fraction (MZ2-MEL),cleaved PARP positive nuclei fraction (MeWo),cleaved PARP positive nuclei fraction (RPMI7951),cleaved PARP positive nuclei fraction (RVH-421),cleaved PARP positive nuclei fraction (SkMel28),cleaved PARP positive nuclei fraction (SkMel2),cleaved PARP positive nuclei fraction (SkMel30),cleaved PARP positive nuclei fraction (SkMel5),cleaved PARP positive nuclei fraction (UACC257),cleaved PARP positive nuclei fraction (UACC62),cleaved PARP positive nuclei fraction (WM115),cleaved PARP positive nuclei fraction (WM1716),cleaved PARP positive nuclei fraction (WM1745),cleaved PARP positive nuclei fraction (WM3526),cleaved PARP positive nuclei fraction (WM3619),cleaved PARP positive nuclei fraction (WM451Lu)
"CC[C@]1(O)C[C@H]2CN(CCc3c([nH]c4ccccc34)[C@@](C(=O)OC)(c3cc4c(cc3OC)N(C=O)[C@H]3[C@@](O)(C(=O)OC)[C@H](OC(C)=O)[C@]5(CC)C=CCN6CC[C@]43[C@@H]65)C2)C1 [vincristine] + O=S(=O)(c1ccccc1)N(CC(F)(F)F)c1ccc(C(O)(C(F)(F)F)C(F)(F)F)cc1 [T0901317] (first compound 0.0001 µM, partner dose 1.4 µM)",99.2%,56%,134%,365%,132%,227%,109%,92.7%,467%,280%,1830%,163%,134%,130%,175%,164%
"Cc1cn(-c2cc(NC(=O)c3ccc(C)c(Nc4nccc(-c5cccnc5)n4)c3)cc(C(F)(F)F)c2)cn1 [nilotinib] + NCC(=O)Nc1ccc(-n2nc(C(F)(F)F)cc2-c2ccc3c(ccc4ccccc43)c2)cc1 [OSU03012] (first compound 0.2 µM, partner dose 1 µM)",38%,225%,63.6%,51.9%,32.1%,164%,125%,87.6%,168%,54.1%,116%,97.6%,126%,93.2%,80.2%,182%
"CC[C@]1(O)C[C@H]2CN(CCc3c([nH]c4ccccc34)[C@@](C(=O)OC)(c3cc4c(cc3OC)N(C=O)[C@H]3[C@@](O)(C(=O)OC)[C@H](OC(C)=O)[C@]5(CC)C=CCN6CC[C@]43[C@@H]65)C2)C1 [vincristine] + COc1ccc(-c2ccc3c(N4CCOCC4)nc(N4C[C@@H](C)O[C@@H](C)C4)nc3n2)cc1CO [KU0063794] (first compound 0.0001 µM, partner dose 0.02 µM)",29.2%,28.6%,50.8%,87.7%,58.6%,294%,142%,84.5%,159%,172%,420%,212%,184%,24.6%,123%,118%
"CCCCCCCCCCCCCCCCCCOP(=O)([O-])OC1CC[N+](C)(C)CC1 [Perifosine] + Oc1nc(-c2ccc(C(F)(F)F)cc2)nc2c1CSCC2 [XAV939] (first compound 0.4 µM, partner dose 2 µM)",80%,28.9%,86.9%,62.1%,220%,73.4%,34.7%,90.3%,170%,113%,112%,109%,104%,170%,84.3%,43.4%
"CC[C@]1(O)C[C@H]2CN(CCc3c([nH]c4ccccc34)[C@@](C(=O)OC)(c3cc4c(cc3OC)N(C=O)[C@H]3[C@@](O)(C(=O)OC)[C@H](OC(C)=O)[C@]5(CC)C=CCN6CC[C@]43[C@@H]65)C2)C1 [vincristine] + Oc1nc(-c2ccc(C(F)(F)F)cc2)nc2c1CSCC2 [XAV939] (first compound 0.0001 µM, partner dose 2 µM)",133%,99.8%,122%,49%,352%,102%,156%,180%,233%,227%,937%,314%,118%,115%,147%,211%
"CCCCCCCCCCCCCCCCCCOP(=O)([O-])OC1CC[N+](C)(C)CC1 [Perifosine] + CCc1ccc(CCOc2ccc(CC3SC(=O)NC3=O)cc2)nc1 [pioglitazone] (first compound 0.4 µM, partner dose 2 µM)",159%,136%,57.1%,87.9%,107%,59.1%,49.2%,66.5%,74.3%,247%,117%,182%,88.9%,88.8%,104%,565%
"O=c1[nH]nc(Sc2ncc([N+](=O)[O-])s2)n1-c1ccc2c(c1)OCCO2 + Cn1cncc1[C@@](N)(c1ccc(Cl)cc1)c1ccc2c(c1)c(-c1cccc(Cl)c1)cc(=O)n2C [tipifarnib] (first compound 0.2 µM, partner dose 0.01 µM)",133%,46.5%,157%,270%,60.1%,131%,96.3%,58.5%,92.6%,68.9%,74.1%,105%,87.2%,76.2%,64.6%,31.4%
"N#CC[C@H](C1CCCC1)n1cc(-c2ncnc3[nH]ccc23)cn1 [ruxolitinib] + O=C(O)c1ccc(-c2c[nH]c3ncc(-c4ccccc4)cc23)cc1C1CCCC1 [GSK650394] (first compound 1 µM, partner dose 0.16 µM)",157%,189%,88.2%,114%,112%,148%,57.6%,67.6%,79%,39.8%,78.2%,96.7%,84.1%,–,121%,90.4%
"CCCCCCCCCCCCCCCCCCOP(=O)([O-])OC1CC[N+](C)(C)CC1 [Perifosine] + C[C@@H]1CCN(C(=O)CC#N)C[C@@H]1N(C)c1ncnc2[nH]ccc12 [CP690550] (first compound 0.4 µM, partner dose 1 µM)",147%,34.3%,647%,230%,116%,68.6%,53.8%,66.4%,119%,51.4%,45.8%,167%,118%,37.1%,102%,169%
"COc1cc([C@@H]2c3cc4c(cc3[C@@H](O[C@@H]3O[C@@H]5CO[C@@H](C)O[C@H]5[C@H](O)[C@H]3O)[C@H]3COC(=O)[C@H]23)OCO4)cc(OC)c1O [etoposide] + O=C(CCCCCCC(=O)Nc1ccccc1)NO [vorinostat] (first compound 0.02 µM, partner dose 0.08 µM)",161%,90.3%,33.4%,99.2%,82.4%,97.6%,145%,44.9%,84.1%,120%,48.8%,60%,82.1%,176%,101%,69.4%
"Cc1cn(-c2cc(NC(=O)c3ccc(C)c(Nc4nccc(-c5cccnc5)n4)c3)cc(C(F)(F)F)c2)cn1 [nilotinib] + O=C(CCCCCCC(=O)Nc1ccccc1)NO [vorinostat] (first compound 0.2 µM, partner dose 0.08 µM)",28.1%,102%,106%,91.1%,224%,103%,58.7%,146%,65.2%,231%,104%,179%,109%,58.7%,94.1%,61.8%
"O=C(Nc1cc(C(F)(F)F)cc(C(F)(F)F)c1)c1cc(Cl)ccc1O + CCN(CC)CCCCNc1ncc2cc(-c3cc(OC)cc(OC)c3)c(NC(=O)NC(C)(C)C)nc2n1 [PD173074] (first compound 0.016 µM, partner dose 0.1 µM)",88.3%,46.3%,79.2%,49.8%,104%,129%,39.7%,136%,127%,86.6%,43.2%,44.1%,80.4%,65.6%,76.6%,103%
"O=C(Nc1cc(C(F)(F)F)cc(C(F)(F)F)c1)c1cc(Cl)ccc1O + O=C(Nc1ccccc1)c1cc([N+](=O)[O-])ccc1Cl [GW9662] (first compound 0.016 µM, partner dose 2 µM)",141%,353%,62.3%,123%,220%,73.4%,44.4%,78.7%,312%,98.2%,204%,197%,89.1%,83.8%,92.3%,145%
"N#CC[C@H](C1CCCC1)n1cc(-c2ncnc3[nH]ccc23)cn1 [ruxolitinib] + Cn1cc(/C=C2\C(=O)Nc3cccnc32)c2ccccc21 [GW441756] (first compound 1 µM, partner dose 0.4 µM)",111%,127%,83.4%,117%,91.8%,83.7%,111%,81.1%,178%,64%,173%,58.8%,89%,63.8%,89.5%,131%
"N#CC[C@H](C1CCCC1)n1cc(-c2ncnc3[nH]ccc23)cn1 [ruxolitinib] + Oc1cc(-c2nc(-c3ccccc3)[nH]c2-c2ccncc2)ccc1Cl [L779450] (first compound 1 µM, partner dose 0.2 µM)",48.9%,153%,137%,44.5%,83.2%,89.1%,328%,64.1%,87.1%,152%,226%,44.6%,88.9%,78.5%,88%,38.7%
"O=C(Nc1cc(C(F)(F)F)cc(C(F)(F)F)c1)c1cc(Cl)ccc1O + COc1ccc(-c2ccc3c(N4CCOCC4)nc(N4C[C@@H](C)O[C@@H](C)C4)nc3n2)cc1CO [KU0063794] (first compound 0.016 µM, partner dose 0.02 µM)",193%,124%,148%,49.2%,185%,38.9%,107%,73.4%,105%,125%,65.4%,123%,87.9%,81.5%,94.6%,99.1%
"COc1cc([C@@H]2c3cc4c(cc3[C@@H](O[C@@H]3O[C@@H]5CO[C@@H](C)O[C@H]5[C@H](O)[C@H]3O)[C@H]3COC(=O)[C@H]23)OCO4)cc(OC)c1O [etoposide] + COc1ccc(COc2ccc(Cc3cnc(N)nc3N)cc2OC)cc1 [GW2580] (first compound 0.02 µM, partner dose 1 µM)",141%,41.8%,70.1%,44%,56.5%,21.9%,35%,78%,73.1%,89.7%,109%,–,94%,167%,94.5%,88.6%
"N#CC[C@H](C1CCCC1)n1cc(-c2ncnc3[nH]ccc23)cn1 [ruxolitinib] + NCC(=O)Nc1ccc(-n2nc(C(F)(F)F)cc2-c2ccc3c(ccc4ccccc43)c2)cc1 [OSU03012] (first compound 1 µM, partner dose 1 µM)",194%,101%,27.3%,104%,167%,353%,133%,111%,90.9%,101%,46.7%,64.2%,91.6%,45.3%,86.5%,199%

# Given as tab-separated lines: part of the list above.
SMILES	cleaved PARP positive nuclei fraction (MZ2-MEL)	cleaved PARP positive nuclei fraction (MeWo)	cleaved PARP positive nuclei fraction (RPMI7951)	cleaved PARP positive nuclei fraction (RVH-421)	cleaved PARP positive nuclei fraction (SkMel28)	cleaved PARP positive nuclei fraction (SkMel2)	cleaved PARP positive nuclei fraction (SkMel30)	cleaved PARP positive nuclei fraction (SkMel5)	cleaved PARP positive nuclei fraction (UACC257)	cleaved PARP positive nuclei fraction (UACC62)	cleaved PARP positive nuclei fraction (WM115)	cleaved PARP positive nuclei fraction (WM1716)	cleaved PARP positive nuclei fraction (WM1745)	cleaved PARP positive nuclei fraction (WM3526)	cleaved PARP positive nuclei fraction (WM3619)	cleaved PARP positive nuclei fraction (WM451Lu)
O=C(Nc1cc(C(F)(F)F)cc(C(F)(F)F)c1)c1cc(Cl)ccc1O + CCN(CC)CCCCNc1ncc2cc(-c3cc(OC)cc(OC)c3)c(NC(=O)NC(C)(C)C)nc2n1 [PD173074] (first compound 0.016 µM, partner dose 0.1 µM)	88.3%	46.3%	79.2%	49.8%	104%	129%	39.7%	136%	127%	86.6%	43.2%	44.1%	80.4%	65.6%	76.6%	103%
COc1cc([C@@H]2c3cc4c(cc3[C@@H](O[C@@H]3O[C@@H]5CO[C@@H](C)O[C@H]5[C@H](O)[C@H]3O)[C@H]3COC(=O)[C@H]23)OCO4)cc(OC)c1O [etoposide] + COc1ccc(COc2ccc(Cc3cnc(N)nc3N)cc2OC)cc1 [GW2580] (first compound 0.02 µM, partner dose 1 µM)	141%	41.8%	70.1%	44%	56.5%	21.9%	35%	78%	73.1%	89.7%	109%	–	94%	167%	94.5%	88.6%
